Measurements from PMC8132058.
Results are given in words; binding and its absence hold for the method and conditions named. Binding seen in cells or lysates may run through a third protein. Some results given as binding are weak or reduced against the parent protein; the word gives no strength.

Target: T1, CUL4B (endogenous) (human (endogenous in MCF-7, MDA-MB-231, HEK293T)), Q13620
T1 chain: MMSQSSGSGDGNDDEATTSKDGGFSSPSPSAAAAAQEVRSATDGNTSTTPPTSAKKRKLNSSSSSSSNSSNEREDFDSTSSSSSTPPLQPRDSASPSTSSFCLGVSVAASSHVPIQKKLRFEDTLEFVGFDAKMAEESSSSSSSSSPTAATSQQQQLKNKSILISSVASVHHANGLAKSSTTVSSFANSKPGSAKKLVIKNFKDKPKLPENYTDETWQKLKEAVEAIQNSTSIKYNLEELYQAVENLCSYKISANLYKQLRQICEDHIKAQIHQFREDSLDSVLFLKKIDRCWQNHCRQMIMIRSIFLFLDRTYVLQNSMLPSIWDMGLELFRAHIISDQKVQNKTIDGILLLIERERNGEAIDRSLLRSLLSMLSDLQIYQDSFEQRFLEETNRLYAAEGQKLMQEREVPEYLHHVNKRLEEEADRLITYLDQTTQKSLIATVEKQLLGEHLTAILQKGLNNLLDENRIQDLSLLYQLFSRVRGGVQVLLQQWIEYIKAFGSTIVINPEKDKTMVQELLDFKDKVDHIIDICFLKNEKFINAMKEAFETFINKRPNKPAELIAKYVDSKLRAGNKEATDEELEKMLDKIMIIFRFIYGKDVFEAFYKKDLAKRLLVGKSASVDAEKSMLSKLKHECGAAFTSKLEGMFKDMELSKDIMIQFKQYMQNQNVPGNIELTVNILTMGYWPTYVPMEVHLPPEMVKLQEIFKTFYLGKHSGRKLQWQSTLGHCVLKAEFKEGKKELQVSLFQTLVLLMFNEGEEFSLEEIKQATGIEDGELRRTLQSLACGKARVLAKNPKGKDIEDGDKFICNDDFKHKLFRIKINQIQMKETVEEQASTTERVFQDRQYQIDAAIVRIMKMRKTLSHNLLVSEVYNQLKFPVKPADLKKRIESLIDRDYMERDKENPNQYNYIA
Experiment: co-IP; endogenous proteins, MDA-MB-231 cells; IP with anti-CUL4B, immunoblot
Conditions: remark: other sources report otherwise

B1: ZEB1 (endogenous), P37275 1-1124 (protein)
chain: MADGPRCKRRKQANPRRNNVTNYNTVVETNSDSDDEDKLHIVEEESVTDAADCEGVPEDDLPTDQTVLPGRSSEREGNAKNCWEDDRKEGQEILGPEAQADEAGCTVKDDECESDAENEQNHDPNVEEFLQQQDTAVIFPEAPEEDQRQGTPEASGHDENGTPDAFSQLLTCPYCDRGYKRFTSLKEHIKYRHEKNEDNFSCSLCSYTFAYRTQLERHMTSHKSGRDQRHVTQSGCNRKFKCTECGKAFKYKHHLKEHLRIHSGEKPYECPNCKKRFSHSGSYSSHISSKKCISLIPVNGRPRTGLKTSQCSSPSLSASPGSPTRPQIRQKIENKPLQEQLSVNQIKTEPVDYEFKPIVVASGINCSTPLQNGVFTGGGPLQATSSPQGMVQAVVLPTVGLVSPISINLSDIQNVLKVAVDGNVIRQVLENNQANLASKEQETINASPIQQGGHSVISAISLPLVDQDGTTKIIINYSLEQPSQLQVVPQNLKKENPVATNSCKSEKLPEDLTVKSEKDKSFEGGVNDSTCLLCDDCPGDINALPELKHYDLKQPTQPPPLPAAEAEKPESSVSSATGDGNLSPSQPPLKNLLSLLKAYYALNAQPSAEELSKIADSVNLPLDVVKKWFEKMQAGQISVQSSEPSSPEPGKVNIPAKNNDQPQSANANEPQDSTVNLQSPLKMTNSPVLPVGSTTNGSRSSTPSPSPLNLSSSRNTQGYLYTAEGAQEEPQVEPLDLSLPKQQGELLERSTITSVYQNSVYSVQEEPLNLSCAKKEPQKDSCVTDSEPVVNVIPPSANPINIAIPTVTAQLPTIVAIADQNSVPCLRALAANKQTILIPQVAYTYSTTVSPAVQEPPLKVIQPNGNQDERQDTSSEGVSNVEDQNDSDSTPPKKKMRKTENGMYACDLCDKIFQKSSSLLRHKYEHTGKRPHECGICKKAFKHKHHLIEHMRLHSGEKPYQCDKCGKRFSHSGSYSQHMNHRYSYCKREAEERDSTEQEEAGPEILSNEHVGARASPSQGDSDERESLTREEDEDSEKEEEEEDKEMEELQEEKECEKPQGDEEEEEEEEEVEEEEVEEAENEGEEAKTEGLMKDDRAESQASSLGQKVGESSEQVSEEKTNEA
- binding: binds
